Measured values from publication PMC9822926.

Sequences of proteins named here, by UniProt entry; tags and fusion partners are left off.
UniProt P51148: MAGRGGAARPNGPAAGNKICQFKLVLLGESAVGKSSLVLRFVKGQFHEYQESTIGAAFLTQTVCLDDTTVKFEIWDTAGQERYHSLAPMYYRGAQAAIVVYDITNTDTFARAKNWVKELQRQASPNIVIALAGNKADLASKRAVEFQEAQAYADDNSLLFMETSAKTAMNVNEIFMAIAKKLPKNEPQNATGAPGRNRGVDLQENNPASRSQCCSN

Biological target: T1, MFN1-HA (endogenously expressed MFN1 with an HA-tag inserted in the MFN1 alleles of HeLa cells) (human (endogenous in HeLa)) (UniProt Q8IWA4)
T1 sequence: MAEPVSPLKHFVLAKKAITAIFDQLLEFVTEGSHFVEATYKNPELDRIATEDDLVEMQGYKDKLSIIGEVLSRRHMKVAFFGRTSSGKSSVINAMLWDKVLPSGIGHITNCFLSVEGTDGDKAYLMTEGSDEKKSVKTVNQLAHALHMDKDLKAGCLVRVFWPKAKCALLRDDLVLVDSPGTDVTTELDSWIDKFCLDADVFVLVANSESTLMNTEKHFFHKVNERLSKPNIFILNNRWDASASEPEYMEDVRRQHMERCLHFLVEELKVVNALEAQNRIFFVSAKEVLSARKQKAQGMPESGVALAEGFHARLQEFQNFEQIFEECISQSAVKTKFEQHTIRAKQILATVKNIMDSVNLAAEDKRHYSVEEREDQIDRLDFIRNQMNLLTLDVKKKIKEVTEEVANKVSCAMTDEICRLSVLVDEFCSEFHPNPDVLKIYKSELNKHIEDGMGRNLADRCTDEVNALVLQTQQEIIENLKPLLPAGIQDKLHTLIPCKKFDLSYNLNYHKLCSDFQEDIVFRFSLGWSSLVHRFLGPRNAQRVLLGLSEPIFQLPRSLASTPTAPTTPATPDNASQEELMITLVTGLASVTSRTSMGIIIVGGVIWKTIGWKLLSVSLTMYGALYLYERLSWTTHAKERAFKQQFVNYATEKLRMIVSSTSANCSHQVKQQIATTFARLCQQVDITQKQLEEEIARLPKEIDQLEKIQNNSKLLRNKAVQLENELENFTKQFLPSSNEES
Assay: affinity purification with mass spectrometry; HA-dynabeads, 12 h at 4 °C, lysates of MFN1-HA HeLa cells (WT HeLa as control); lysis 50 mM Tris pH 7.4, 150 mM NaCl, 5 mM EDTA, 1% digitonin; washes with 0.1% digitonin; SAINTexpress, BFDR ≤ 0.05

In the case of “RAB5C (endogenous, HeLa) (from UniProt P51148 1-216)”, the binding is reported as “binds”.

These are yes or no findings as the source states them, for the method shown. In cells and extracts the contact can be indirect. Here binding means that the protein was enriched with, or labelled near, the bait; the list need not be complete. Sequences can lack the tags named with a protein.
